Experimental data as given in patent publication US20250197671A1, “IRRADIATION-CROSSLINKABLE SILICONE COMPOSITION COMPRISING PT(OCTANE-2,4-DIONE)2 AS A CATALYST” (ELKEM SILICONES FRANCE SAS, priority 2022, published 2025).
For at least one compound, name, drawing or mass did not settle the structure.

Assay: Crosslinking time of silicone composition under UV LED irradiation (catalyst activity)
Conditions: UV LED 365 nm, 10 ppm Pt, SiH/Si(vinyl)=2:1, bulk setting time
Protocol: Irradiation: UV LED lamp with a wavelength of 365 nm.
The crosslinking time is measured. It corresponds to the bulk setting time of the system (the bar magnet can no longer stir the system).

`CC(=O)/C=C(/C)O.CC(=O)/C=C(/C)O.[Pt]` [Catalyst C2, Pt(acac)2] showed a Crosslinking time of 6 min 40 s.
